Test results published in the supplement of paper PMC10849652.
The other results are listed elsewhere or left out.

Sequences of proteins named here, by UniProt entry; tags and fusion partners are left off. A change or cut given only in a name is not applied to a line headed by its entry.
UniProt Q8IXQ5, whole entry, looked up: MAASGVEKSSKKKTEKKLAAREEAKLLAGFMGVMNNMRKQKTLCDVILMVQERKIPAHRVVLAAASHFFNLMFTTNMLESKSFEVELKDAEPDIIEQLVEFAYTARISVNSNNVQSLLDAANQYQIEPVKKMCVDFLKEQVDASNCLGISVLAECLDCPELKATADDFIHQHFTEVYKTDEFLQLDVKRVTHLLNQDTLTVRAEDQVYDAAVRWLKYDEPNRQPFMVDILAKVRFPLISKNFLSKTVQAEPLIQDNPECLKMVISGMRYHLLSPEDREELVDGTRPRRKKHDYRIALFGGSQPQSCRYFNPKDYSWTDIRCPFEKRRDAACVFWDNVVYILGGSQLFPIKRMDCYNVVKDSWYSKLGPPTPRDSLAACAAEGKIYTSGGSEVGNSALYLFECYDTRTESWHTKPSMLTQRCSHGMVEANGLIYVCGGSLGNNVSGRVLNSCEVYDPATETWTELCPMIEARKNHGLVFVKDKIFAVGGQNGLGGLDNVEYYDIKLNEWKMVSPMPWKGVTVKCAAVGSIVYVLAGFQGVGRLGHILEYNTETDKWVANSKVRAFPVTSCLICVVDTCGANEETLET
UniProt P17275: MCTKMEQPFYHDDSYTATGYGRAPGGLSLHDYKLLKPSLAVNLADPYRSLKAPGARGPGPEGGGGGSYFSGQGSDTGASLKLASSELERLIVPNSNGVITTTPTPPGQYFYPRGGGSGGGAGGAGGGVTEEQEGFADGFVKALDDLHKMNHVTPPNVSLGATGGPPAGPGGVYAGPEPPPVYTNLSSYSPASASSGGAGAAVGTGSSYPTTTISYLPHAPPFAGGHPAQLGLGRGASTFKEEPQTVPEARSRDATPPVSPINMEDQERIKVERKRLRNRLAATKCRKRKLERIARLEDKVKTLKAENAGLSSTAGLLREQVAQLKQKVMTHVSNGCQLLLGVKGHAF
UniProt Q9ULH0: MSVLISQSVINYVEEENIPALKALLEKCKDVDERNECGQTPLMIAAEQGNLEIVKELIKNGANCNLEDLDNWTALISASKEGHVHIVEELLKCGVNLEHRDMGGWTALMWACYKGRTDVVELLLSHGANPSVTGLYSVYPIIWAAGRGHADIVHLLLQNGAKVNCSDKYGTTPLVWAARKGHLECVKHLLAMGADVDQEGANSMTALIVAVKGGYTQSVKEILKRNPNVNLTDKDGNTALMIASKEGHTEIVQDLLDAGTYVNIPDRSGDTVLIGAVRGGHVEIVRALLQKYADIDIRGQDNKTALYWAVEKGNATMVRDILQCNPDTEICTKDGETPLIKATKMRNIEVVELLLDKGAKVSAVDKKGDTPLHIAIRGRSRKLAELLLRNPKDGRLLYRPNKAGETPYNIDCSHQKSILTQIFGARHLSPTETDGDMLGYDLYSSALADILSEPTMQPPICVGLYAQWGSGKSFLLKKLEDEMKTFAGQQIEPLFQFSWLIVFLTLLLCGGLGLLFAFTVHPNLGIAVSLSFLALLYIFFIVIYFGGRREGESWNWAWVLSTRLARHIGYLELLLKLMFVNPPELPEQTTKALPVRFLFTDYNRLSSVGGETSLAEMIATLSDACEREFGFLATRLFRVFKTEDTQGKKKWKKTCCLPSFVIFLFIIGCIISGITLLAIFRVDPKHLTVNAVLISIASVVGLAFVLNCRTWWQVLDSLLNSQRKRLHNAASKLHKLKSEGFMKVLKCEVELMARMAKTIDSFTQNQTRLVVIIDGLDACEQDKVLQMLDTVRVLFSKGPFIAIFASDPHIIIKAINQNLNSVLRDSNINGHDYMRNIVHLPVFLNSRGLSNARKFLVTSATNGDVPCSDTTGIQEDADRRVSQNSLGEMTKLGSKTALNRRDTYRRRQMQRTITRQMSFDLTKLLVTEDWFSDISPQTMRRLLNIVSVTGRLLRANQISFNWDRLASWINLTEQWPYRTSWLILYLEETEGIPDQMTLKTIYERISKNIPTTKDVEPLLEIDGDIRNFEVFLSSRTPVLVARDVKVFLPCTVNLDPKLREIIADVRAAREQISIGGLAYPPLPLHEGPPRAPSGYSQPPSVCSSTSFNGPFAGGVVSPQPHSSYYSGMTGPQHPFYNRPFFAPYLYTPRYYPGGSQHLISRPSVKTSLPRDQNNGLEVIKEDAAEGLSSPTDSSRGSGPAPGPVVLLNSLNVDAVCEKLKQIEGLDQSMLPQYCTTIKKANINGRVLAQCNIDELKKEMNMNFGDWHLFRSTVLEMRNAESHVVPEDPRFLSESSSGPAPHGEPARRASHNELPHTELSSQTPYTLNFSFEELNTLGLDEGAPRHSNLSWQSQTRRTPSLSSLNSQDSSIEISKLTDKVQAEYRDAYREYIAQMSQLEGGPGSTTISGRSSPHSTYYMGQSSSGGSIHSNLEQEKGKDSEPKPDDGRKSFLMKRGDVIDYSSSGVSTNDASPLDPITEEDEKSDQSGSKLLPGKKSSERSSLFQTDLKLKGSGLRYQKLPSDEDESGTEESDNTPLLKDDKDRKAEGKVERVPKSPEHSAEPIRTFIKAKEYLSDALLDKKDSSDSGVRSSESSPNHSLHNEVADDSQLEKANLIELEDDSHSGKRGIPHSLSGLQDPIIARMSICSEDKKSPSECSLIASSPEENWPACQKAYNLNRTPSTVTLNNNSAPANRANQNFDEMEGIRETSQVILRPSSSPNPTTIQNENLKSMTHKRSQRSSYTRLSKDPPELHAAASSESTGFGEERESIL
UniProt P50053: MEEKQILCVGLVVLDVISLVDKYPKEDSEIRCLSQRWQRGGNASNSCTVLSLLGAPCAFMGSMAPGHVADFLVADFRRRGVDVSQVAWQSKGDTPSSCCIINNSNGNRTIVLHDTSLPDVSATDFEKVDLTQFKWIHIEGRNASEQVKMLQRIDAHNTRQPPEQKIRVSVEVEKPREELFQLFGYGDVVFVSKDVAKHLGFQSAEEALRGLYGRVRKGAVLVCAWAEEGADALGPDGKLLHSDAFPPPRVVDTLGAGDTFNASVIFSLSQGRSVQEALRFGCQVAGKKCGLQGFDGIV
UniProt Q9NQT8: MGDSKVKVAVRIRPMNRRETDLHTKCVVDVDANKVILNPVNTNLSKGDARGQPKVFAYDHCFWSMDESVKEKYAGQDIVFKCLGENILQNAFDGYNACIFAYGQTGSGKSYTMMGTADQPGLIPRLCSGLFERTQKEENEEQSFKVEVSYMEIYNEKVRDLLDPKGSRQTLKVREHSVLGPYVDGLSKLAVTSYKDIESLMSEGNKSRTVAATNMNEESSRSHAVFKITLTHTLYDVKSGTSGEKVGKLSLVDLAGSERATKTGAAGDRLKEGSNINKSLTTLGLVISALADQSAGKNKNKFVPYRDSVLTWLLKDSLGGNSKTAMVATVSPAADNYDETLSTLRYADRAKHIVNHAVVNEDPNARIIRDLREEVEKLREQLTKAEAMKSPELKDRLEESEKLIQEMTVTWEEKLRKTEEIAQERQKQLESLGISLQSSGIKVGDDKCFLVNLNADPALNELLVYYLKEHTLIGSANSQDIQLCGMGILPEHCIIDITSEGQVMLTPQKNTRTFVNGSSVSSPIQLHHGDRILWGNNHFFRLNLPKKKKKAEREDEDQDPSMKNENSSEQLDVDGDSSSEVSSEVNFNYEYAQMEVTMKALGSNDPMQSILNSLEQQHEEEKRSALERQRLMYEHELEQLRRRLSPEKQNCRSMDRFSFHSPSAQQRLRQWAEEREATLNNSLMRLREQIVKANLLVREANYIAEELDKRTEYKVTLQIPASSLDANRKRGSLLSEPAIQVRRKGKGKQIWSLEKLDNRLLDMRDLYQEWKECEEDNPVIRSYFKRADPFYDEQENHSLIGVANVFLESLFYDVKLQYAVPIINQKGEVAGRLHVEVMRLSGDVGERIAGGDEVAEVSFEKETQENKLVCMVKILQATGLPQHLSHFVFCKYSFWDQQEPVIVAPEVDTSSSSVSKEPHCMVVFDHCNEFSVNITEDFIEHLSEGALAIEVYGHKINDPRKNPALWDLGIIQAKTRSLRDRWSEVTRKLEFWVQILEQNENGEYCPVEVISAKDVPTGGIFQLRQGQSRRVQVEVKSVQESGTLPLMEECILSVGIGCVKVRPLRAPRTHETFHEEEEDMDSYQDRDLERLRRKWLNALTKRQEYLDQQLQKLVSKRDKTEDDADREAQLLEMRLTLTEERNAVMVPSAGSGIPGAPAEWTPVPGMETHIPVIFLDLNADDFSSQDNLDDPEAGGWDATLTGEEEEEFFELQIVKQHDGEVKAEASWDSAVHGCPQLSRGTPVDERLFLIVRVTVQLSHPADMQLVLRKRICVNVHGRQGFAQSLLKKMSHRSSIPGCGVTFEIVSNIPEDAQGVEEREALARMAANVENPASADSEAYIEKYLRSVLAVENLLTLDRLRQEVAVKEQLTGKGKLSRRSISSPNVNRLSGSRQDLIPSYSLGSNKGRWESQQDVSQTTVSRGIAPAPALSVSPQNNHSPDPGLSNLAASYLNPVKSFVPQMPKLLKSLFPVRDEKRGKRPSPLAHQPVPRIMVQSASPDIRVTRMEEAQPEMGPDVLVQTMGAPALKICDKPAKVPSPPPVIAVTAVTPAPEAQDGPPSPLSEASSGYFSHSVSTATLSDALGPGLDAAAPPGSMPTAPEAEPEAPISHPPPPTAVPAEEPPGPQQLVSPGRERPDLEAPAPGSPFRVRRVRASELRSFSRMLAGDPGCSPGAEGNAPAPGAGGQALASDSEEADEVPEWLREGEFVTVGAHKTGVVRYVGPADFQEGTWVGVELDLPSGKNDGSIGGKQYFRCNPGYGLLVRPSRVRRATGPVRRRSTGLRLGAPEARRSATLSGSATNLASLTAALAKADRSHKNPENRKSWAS
UniProt P52333: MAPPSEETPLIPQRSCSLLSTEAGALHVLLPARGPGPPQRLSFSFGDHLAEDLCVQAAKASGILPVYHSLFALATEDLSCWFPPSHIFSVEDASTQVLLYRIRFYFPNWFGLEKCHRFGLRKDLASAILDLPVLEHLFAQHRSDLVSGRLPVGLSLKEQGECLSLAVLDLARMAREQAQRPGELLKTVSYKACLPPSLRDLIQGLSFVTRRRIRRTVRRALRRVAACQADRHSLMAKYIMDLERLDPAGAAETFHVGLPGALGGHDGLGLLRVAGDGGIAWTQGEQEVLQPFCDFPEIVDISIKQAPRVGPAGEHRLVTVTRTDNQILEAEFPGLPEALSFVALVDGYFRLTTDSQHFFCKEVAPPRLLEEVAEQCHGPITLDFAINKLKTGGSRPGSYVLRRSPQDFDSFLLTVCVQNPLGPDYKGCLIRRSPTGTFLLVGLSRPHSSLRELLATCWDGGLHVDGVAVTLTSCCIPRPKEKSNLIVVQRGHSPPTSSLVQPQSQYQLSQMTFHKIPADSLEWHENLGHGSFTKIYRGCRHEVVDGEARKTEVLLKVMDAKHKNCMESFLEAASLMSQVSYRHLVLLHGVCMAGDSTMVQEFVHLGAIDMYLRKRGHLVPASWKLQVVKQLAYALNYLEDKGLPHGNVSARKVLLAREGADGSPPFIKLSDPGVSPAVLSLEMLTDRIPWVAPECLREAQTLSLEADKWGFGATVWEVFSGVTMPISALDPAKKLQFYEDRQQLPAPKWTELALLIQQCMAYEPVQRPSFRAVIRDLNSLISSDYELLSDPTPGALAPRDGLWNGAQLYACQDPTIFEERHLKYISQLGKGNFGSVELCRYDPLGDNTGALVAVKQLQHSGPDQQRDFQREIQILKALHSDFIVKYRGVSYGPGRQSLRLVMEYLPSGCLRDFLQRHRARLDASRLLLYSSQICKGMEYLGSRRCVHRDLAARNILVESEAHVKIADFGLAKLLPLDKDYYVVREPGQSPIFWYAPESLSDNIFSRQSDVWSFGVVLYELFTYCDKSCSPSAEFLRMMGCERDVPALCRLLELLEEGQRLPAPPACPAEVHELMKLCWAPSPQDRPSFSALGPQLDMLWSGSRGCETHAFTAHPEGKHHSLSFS
UniProt Q9UK76: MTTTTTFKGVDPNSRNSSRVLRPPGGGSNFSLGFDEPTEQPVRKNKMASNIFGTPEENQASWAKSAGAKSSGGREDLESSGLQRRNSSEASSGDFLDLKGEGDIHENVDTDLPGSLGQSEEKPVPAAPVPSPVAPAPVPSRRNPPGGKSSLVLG
UniProt O75449: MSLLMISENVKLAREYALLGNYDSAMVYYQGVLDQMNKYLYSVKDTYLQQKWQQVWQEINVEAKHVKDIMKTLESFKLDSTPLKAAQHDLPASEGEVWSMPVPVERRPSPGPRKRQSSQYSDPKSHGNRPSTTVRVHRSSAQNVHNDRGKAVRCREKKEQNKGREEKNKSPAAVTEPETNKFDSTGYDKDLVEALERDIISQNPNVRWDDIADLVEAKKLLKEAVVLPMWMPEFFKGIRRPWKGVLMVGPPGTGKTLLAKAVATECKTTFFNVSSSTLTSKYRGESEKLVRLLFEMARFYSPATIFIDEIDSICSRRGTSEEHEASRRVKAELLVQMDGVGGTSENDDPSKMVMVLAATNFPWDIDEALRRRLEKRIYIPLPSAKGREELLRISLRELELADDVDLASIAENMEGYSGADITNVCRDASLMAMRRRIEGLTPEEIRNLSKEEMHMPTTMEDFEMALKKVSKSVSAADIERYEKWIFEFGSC

Assays:
Assay in all cases: log2 fold change, soluble protein after heating vs DMSO (PISA); higher = thermal stabilisation; K562 cells, 10 uM, 30 min; active = over 0.2 and 3.5 SD of the protein, either way, in both replicates (recomputed)
[1] = compound: CS(=O)(=O)c1ccc(-c2cnc(N)c(C(=O)Nc3ccccc3)n2)cc1
In short: (§1)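 K562 cells at 2×10^6 cells/mL were treated with 10 μM compound for 30 min. Aliquots were heated for 3 min across 48°C-58°C, pooled, and extracted in PBS with 0.5% NP-40 at 4°C; soluble protein was the supernatant after 21,000xg for 90 min. Soluble protein was quantified by TMTpro 16plex LC-MS/MS with channel sums equalised, and reported as log2 fold change in thermal stability against DMSO controls, with values from duplicates.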

crizotinib = compound: C[C@@H](Oc1cc(-c2cnn(C3CCNCC3)c2)cnc1N)c1c(Cl)ccc(F)c1Cl [crizotinib]
In short: as §1

[2] = compound: C[C@@H]1COCCN1C2=NC(=NC(=C2)C3(CC3)S(=O)(=O)C)C4=C5C=CNC5=CC=C4
In short: as §1

[3] = compound: C[C@H](C1=CC=C(C=C1)C(=O)NC2=C3C=CNC3=NC=C2)N
In short: as §1

gandotinib = compound: Cc1cc(Nc2cc(CN3CCOCC3)c3nc(C)c(Cc4ccc(Cl)cc4F)n3n2)n[nH]1 [gandotinib]
In short: as §1

[4] = compound: Cc1cc(SCc2sc(-c3ccc(C(F)(F)F)cc3)nc2C)ccc1OCC(=O)O
In short: as §1

doramapimod = compound: Cc1ccc(-n2nc(C(C)(C)C)cc2NC(=O)Nc2ccc(OCCN3CCOCC3)c3ccccc23)cc1 [doramapimod]
In short: as §1

ispinesib = compound: Cc1ccc(C(=O)N(CCCN)[C@@H](c2nc3cc(Cl)ccc3c(=O)n2Cc2ccccc2)C(C)C)cc1 [ispinesib]
In short: as §1

bafetinib = compound: Cc1ccc(NC(=O)c2ccc(CN3CC[C@H](N(C)C)C3)c(C(F)(F)F)c2)cc1Nc1nccc(-c2cncnc2)n1 [bafetinib]
In short: as §1

[5] = compound: Cc1cccc(CC(=O)N2CCc3c2ccc(-c2cn(C)c4ncnc(N)c24)c3F)n1
In short: as §1

nilotinib = compound: Cc1cn(-c2cc(NC(=O)c3ccc(C)c(Nc4nccc(-c5cccnc5)n4)c3)cc(C(F)(F)F)c2)cn1 [nilotinib]
In short: as §1

[6] = compound: Cc1nc(Nc2n[nH]c3c2CN(C(=O)N[C@H](CN(C)C)c2ccccc2)C3(C)C)c2sccc2n1
In short: as §1

dasatinib = compound: Cc1nc(Nc2ncc(C(=O)Nc3c(C)cccc3Cl)s2)cc(N2CCN(CCO)CC2)n1 [dasatinib]
In short: as §1

[7] = compound: Cc1ncc(-c2ccnc(Nc3ccc(S(C)(=O)=O)cc3)n2)n1C(C)C
In short: as §1

[8] = compound: Cn1cc(-c2ccc3c(c2)CCN3C(=O)Cc2cccc(C(F)(F)F)c2)c2c(N)ncnc21
In short: as §1

[9] = compound: Cn1cc(-c2ccc3nnc(C(F)(F)c4ccc5ncccc5c4)n3n2)cn1
In short: as §1

tipifarnib = compound: Cn1cncc1[C@@](N)(c1ccc(Cl)cc1)c1ccc2c(c1)c(-c1cccc(Cl)c1)cc(=O)n2C [tipifarnib]
In short: as §1

mubritinib = compound: FC(F)(F)c1ccc(/C=C/c2nc(COc3ccc(CCCCn4ccnn4)cc3)co2)cc1 [mubritinib]
In short: as §1

duvelisib = compound: C[C@H](Nc1ncnc2nc[nH]c12)c1cc2cccc(Cl)c2c(=O)n1-c1ccccc1 [duvelisib]
In short: as §1

tozasertib = compound: Cc1cc(Nc2cc(N3CCN(C)CC3)nc(Sc3ccc(NC(=O)C4CC4)cc3)n2)n[nH]1 [tozasertib]
In short: as §1

Measured: log2 fold change

KNTC1 (UniProt P50748)
inactive: [1] 0.038 | crizotinib -0.178 | [2] -0.002 | [3] 0.045 | gandotinib -0.162 | [4] 0.012 | doramapimod -0.01 | ispinesib -0.086 | bafetinib -0.013 | [5] 0.043 | nilotinib -0.064 | [6] -0.026 | dasatinib -0.047 | [7] 0.042 | [8] -0.073 | [9] 0 | tipifarnib -0.108 | mubritinib 0.004

KLHL7 isoform 3 (UniProt Q8IXQ5)
inactive: [1] -0.028 | crizotinib 0.081 | [2] 0.017 | [3] 0.035 | duvelisib 0.08 | [4] 0.066 | doramapimod -0.015 | bafetinib -0.111 | nilotinib -0.083 | [6] -0.088 | dasatinib 0.084 | [7] -0.127 | [8] 0.024 | tipifarnib -0.098 | mubritinib -0.001

JMJD1C (UniProt Q15652)
inactive: [1] -0.053 | crizotinib -0.016 | [2] 0.052 | [3] 0.037 | duvelisib -0.01 | gandotinib -0.042 | tozasertib 0.007 | [4] 0.018 | doramapimod 0.02 | ispinesib 0.016 | bafetinib -0.031 | [5] 0.118 | nilotinib -0.057 | [6] -0.083 | dasatinib -0.101 | [7] 0.052 | [8] 0.093 | [9] 0.005 | tipifarnib 0.027 | mubritinib 0.127

JMJD6 isoform 3 (UniProt Q6NYC1)
inactive: [1] -0.037 | crizotinib 0.046 | [2] 0.046 | [3] -0.034 | gandotinib -0.147 | [4] 0.029 | doramapimod 0.005 | ispinesib 0.039 | bafetinib -0.067 | [5] 0.06 | nilotinib -0.011 | [6] -0.254 | dasatinib -0.009 | [7] -0.098 | [8] -0.008 | [9] -0.047 | tipifarnib 0.036 | mubritinib -0.065

KIF15 (UniProt Q9NS87)
inactive: [1] 0.339 | crizotinib -0.015 | [2] -0.338 | [3] 0.359 | duvelisib -0.167 | gandotinib 0.074 | tozasertib 0.173 | [4] 0.105 | doramapimod 0.054 | ispinesib -0.113 | bafetinib 0.158 | [5] 0.037 | dasatinib 0.01 | [8] -0.213 | [9] -0.086 | mubritinib -0.088

KLC4 isoform 3 (UniProt Q9NSK0)
inactive: [1] 0.064 | crizotinib -0.032 | [2] 0.01 | [3] -0.014 | duvelisib 0.043 | gandotinib -0.015 | tozasertib -0.009 | [4] -0.009 | doramapimod -0.019 | ispinesib 0.039 | bafetinib 0.019 | [5] 0.074 | nilotinib 0.025 | [6] -0.097 | dasatinib -0.043 | [7] 0 | [8] 0.042 | [9] -0.015 | tipifarnib -0.024 | mubritinib 0.043

JUNB (UniProt P17275)
inactive: [1] 0.024 | crizotinib 0.201 | [2] -0.106 | [3] 0.232 | gandotinib 0.012 | tozasertib -0.121 | doramapimod 0.206 | ispinesib -0.351 | bafetinib -0.067 | [5] -0.038 | nilotinib -0.073 | [6] 0.009 | [7] -0.059 | [8] -0.072 | [9] 0.182 | mubritinib -0.03

JPT2 isoform 3 (UniProt Q9H910)
inactive: [1] 0.005 | crizotinib 0.018 | [2] -0.015 | [3] -0.006 | duvelisib 0.015 | gandotinib -0.023 | tozasertib -0.05 | [4] -0.053 | doramapimod 0.008 | ispinesib 0.034 | bafetinib -0.007 | [5] -0.04 | nilotinib 0.029 | [6] 0.009 | dasatinib 0.04 | [7] -0.008 | [8] 0.006 | [9] -0.046 | tipifarnib 0.039 | mubritinib 0.024

KATNAL1 (UniProt Q9BW62)
inactive: [1] -0.353 | crizotinib -0.147 | [2] 0.048 | [3] 0.112 | duvelisib 0.09 | tozasertib 0.12 | [4] -0.182 | doramapimod -0.095 | bafetinib -0.047 | dasatinib 0.242 | [8] 0.153 | tipifarnib -0.133

KIDINS220 (UniProt Q9ULH0)
inactive: [1] 0.064 | crizotinib 0.086 | [2] -0.011 | [3] -0.031 | duvelisib 0.057 | gandotinib 0.02 | tozasertib -0.007 | [4] -0.011 | doramapimod 0.004 | ispinesib 0.015 | bafetinib 0.007 | [5] -0.023 | nilotinib 0.017 | [6] -0.026 | dasatinib 0.005 | [7] 0.007 | [8] 0.016 | [9] -0.048 | tipifarnib 0.052 | mubritinib 0.012

KHK isoform 2 (UniProt P50053)
inactive: [1] 0.048 | crizotinib 0.031 | [2] 0.011 | [3] -0.01 | duvelisib 0.054 | gandotinib 0.005 | tozasertib -0.055 | [4] 0.021 | doramapimod -0.016 | ispinesib -0.042 | bafetinib 0.009 | [5] -0.009 | nilotinib -0.076 | [6] 0.018 | dasatinib 0.071 | [7] 0.039 | [8] 0.002 | [9] -0.06 | tipifarnib 0.005 | mubritinib 0.031

KIF13B (UniProt Q9NQT8)
inactive: [1] 0.04 | crizotinib -0.049 | [2] -0.012 | [3] -0.069 | duvelisib 0.133 | gandotinib 0.034 | tozasertib -0.086 | [4] 0.037 | doramapimod 0.059 | bafetinib -0.007 | [5] 0.042 | dasatinib -0.189 | [8] 0.076 | tipifarnib 0.07 | mubritinib -0.147

Quoted from the results shown (2 entries):
JPT2 isoform 3 (UniProt Q9H910)
inactive: [1] 0.005 | crizotinib 0.018 | [2] -0.015 | [3] -0.006 | duvelisib 0.015 | gandotinib -0.023 | tozasertib -0.05 | [4] -0.053 | doramapimod 0.008 | ispinesib 0.034 | bafetinib -0.007 | [5] -0.04 | nilotinib 0.029 | [6] 0.009 | dasatinib 0.04 | [7] -0.008 | [8] 0.006 | [9] -0.046 | tipifarnib 0.039 | mubritinib 0.024

KATNAL1 (UniProt Q9BW62)
inactive: [1] -0.353 | crizotinib -0.147 | [2] 0.048 | [3] 0.112 | duvelisib 0.09 | tozasertib 0.12 | [4] -0.182 | doramapimod -0.095 | bafetinib -0.047 | dasatinib 0.242 | [8] 0.153 | tipifarnib -0.133

(listing goes on)

JAK3 (UniProt P52333)
inactive: [1] 0.001 | crizotinib 0.048 | [2] 0.142 | [3] -0.062 | gandotinib -0.132 | [4] 0.135 | doramapimod -0.071 | ispinesib 0.087 | bafetinib -0.013 | [5] -0.056 | nilotinib -0.01 | [6] 0.082 | dasatinib -0.028 | [7] -0.02 | [8] -0.019 | [9] 0.044 | tipifarnib 0.052 | mubritinib -0.061

KBTBD2 (UniProt Q8IY47)
inactive: [1] 0.001 | crizotinib 0 | [2] 0.032 | [3] -0.08 | duvelisib 0.005 | gandotinib -0.085 | tozasertib -0.075 | [4] 0.029 | doramapimod -0.023 | ispinesib 0.066 | bafetinib -0.003 | [5] -0.013 | nilotinib -0.058 | [6] 0.009 | dasatinib -0.024 | [7] -0.057 | [8] 0.074 | [9] -0.004 | tipifarnib -0.021 | mubritinib 0.082

JPT1 (UniProt Q9UK76)
inactive: [1] -0.001 | crizotinib 0.041 | [2] -0.02 | [3] -0.082 | duvelisib 0.009 | gandotinib -0.002 | tozasertib -0.004 | [4] -0.06 | doramapimod 0.03 | ispinesib -0.021 | bafetinib -0.024 | [5] -0.051 | nilotinib 0.073 | [6] -0.006 | dasatinib 0.039 | [7] 0.007 | [8] 0.043 | [9] -0.006 | tipifarnib 0.015 | mubritinib 0.046

KATNA1 (UniProt O75449)
inactive: [1] -0.029 | crizotinib -0.08 | [2] 0.016 | [3] 0.054 | duvelisib -0.03 | gandotinib -0.004 | tozasertib 0.022 | [4] 0.056 | doramapimod 0.071 | ispinesib -0.069 | bafetinib 0.076 | [5] 0.04 | nilotinib 0.017 | [6] -0.001 | dasatinib 0.028 | [7] -0.016 | [8] 0.018 | [9] -0.023 | tipifarnib -0.03 | mubritinib 0.022

KNL1 (UniProt Q8NG31)
inactive: [1] 0.159 | crizotinib -0.192 | [2] -0.258 | [3] -0.134 | duvelisib 0.123 | gandotinib 0.141 | tozasertib -0.059 | [4] -0.042 | doramapimod 0.238 | ispinesib -0.374 | [5] -0.072 | dasatinib -0.055 | [8] 0.151 | [9] -0.015 | mubritinib 0.202
